Here are results for 24 compounds from the supplement of paper PMC10735217.

Structures can show the parent of a compound that is named as a salt. Some of the results follow. Repeats in this data set agree poorly, so a single value says little.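 Human kidney-derived cells stably carry a construct in which eight TEAD-binding elements drive luciferase, measured by luminescence in a drug-repurposing library screen. A hit is any compound whose signal exceeds the plate mean by more than five robust Z scores.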

The subject of this assay is HEK293A TEAD-LUC reporter. As to the kind of experiment: TEAD-luciferase reporter activity (YAP activation), robust Z score vs plate; higher = stronger YAP/TEAD activation. The following applies: 24 h.

Consider `CCN1CC/C(=C\c2cc(C(C)(C)C)c(O)c(C(C)(C)C)c2)S1(=O)=O`, for which the TEAD-luciferase reporter activity was inactive: -0.234 (compound concentration: 200 nM), inactive: -0.0379 (compound concentration: 2 uM) and inactive: 0.918 (compound concentration: 10 uM).
The like results for `Cc1nc2cccc(C(F)(F)F)c2c(=O)n1-c1ccc(OCCCN2CCCC2)cc1` were, in that order, inactive: -0.889, inactive: -0.237 and inactive: -1.04.
Consider `[N-]=[N+]=N[C@H]1C[C@H](n2ccc(=O)[nH]c2=O)O[C@@H]1CO` [Navuridine], for which the TEAD-luciferase reporter activity by setting is: (compound concentration: 200 nM) inactive: 1.06; (compound concentration: 2 uM) inactive: -0.918; (compound concentration: 10 uM) inactive: -0.614.
`C#CCN(C)CCCOc1ccc(Cl)cc1Cl` [Clorgiline (hydrochloride)]: the TEAD-luciferase reporter activity (compound concentration: 2 uM) is inactive: -0.724.
Regarding `C#CCN(C)CCCOc1ccc(Cl)cc1Cl`, the TEAD-luciferase reporter activity was inactive: -1.01 (compound concentration: 200 nM) and inactive: 1.38 (compound concentration: 10 uM).
For `CN1CCC(C(=O)N2Cc3ccccc3CC3(CCCCN3CC3CCNCC3)C2)CC1` (centres undefined), the TEAD-luciferase reporter activity runs as follows: (compound concentration: 200 nM) inactive: 0.705; (compound concentration: 10 uM) inactive: 1.74.
For `CNC(=O)c1ccc(-c2cnc3ncc(Cc4ccc5ncccc5c4)n3n2)cc1F` [capmatinib], the TEAD-luciferase reporter activity was inactive: -1.97 (compound concentration: 200 nM), inactive: -0.311 (compound concentration: 2 uM) and inactive: -0.121 (compound concentration: 10 uM).
Consider `O=C(O)C(Cl)(Cl)CCCCCCCCCCc1ccc(Cl)cc1`, for which the TEAD-luciferase reporter activity (compound concentration: 200 nM) was inactive: -2.04, the TEAD-luciferase reporter activity (compound concentration: 2 uM) was inactive: -0.156 and the TEAD-luciferase reporter activity (compound concentration: 10 uM) is inactive: -0.996.
As for `Cn1c(=O)c2c(ncn2CCCN[C@H]2CO[C@H]3[C@@H]2OC[C@@H]3O[N+](=O)[O-])n(C)c1=O` [teopranitol], the TEAD-luciferase reporter activity is, setting by setting: (compound concentration: 200 nM) inactive: 3.45; (compound concentration: 2 uM) inactive: -1; (compound concentration: 10 uM) inactive: 1.23.
As to `Cc1nc2c([nH]1)c(=O)n(C)c(=O)n2CC1CC=CCC1` (centres undefined), the TEAD-luciferase reporter activity by setting is: (compound concentration: 200 nM) inactive: -0.581; (compound concentration: 2 uM) inactive: 0.316; (compound concentration: 10 uM) inactive: -1.35.
Consider `C[C@@H](C(O)(Cn1cncn1)c1ccc(F)cc1F)S(C)(=O)=O` (some centres undefined) [genaconazole], for which the TEAD-luciferase reporter activity (compound concentration: 200 nM) was inactive: 1.78, the TEAD-luciferase reporter activity (compound concentration: 2 uM) was inactive: -1 and the TEAD-luciferase reporter activity (compound concentration: 10 uM) is inactive: -1.06.
Consider `CCOC(=O)c1cccc(N)c1` [Tricaine], for which the TEAD-luciferase reporter activity was inactive: 1.65 (compound concentration: 200 nM), inactive: -0.114 (compound concentration: 2 uM) and inactive: 0.205 (compound concentration: 10 uM).
On to `Cc1ccc(Cc2c[nH]c(NCCSCc3ccc(CN(C)C)o3)nc2=O)cn1` [Lupitidine hydrochloride], for which the TEAD-luciferase reporter activity (compound concentration: 200 nM) was inactive: -2.72, the TEAD-luciferase reporter activity (compound concentration: 2 uM) was inactive: 0.746 and the TEAD-luciferase reporter activity (compound concentration: 10 uM) was inactive: 0.651.
Turning to `CC[C@H](C)[C@H](NC(=O)[C@H](CO)NC(=O)[C@H](CC(N)=O)NC(=O)[C@H](CC(C)C)NC(=O)[C@H](Cc1ccc(O)cc1)NC(=O)[C@H](CCCCN)NC(=O)[C@H](CCCCN)NC(=O)[C@@H](NC(=O)[C@H](C)NC(=O)[C@H](CCSC)NC(=O)[C@H](CCC(N)=O)NC(=O)[C@H](CCCCN)NC(=O)[C@H](CCCNC(=N)N)NC(=O)[C@H](CC(C)C)NC(=O)[C@H](CCCNC(=N)N)NC(=O)[C@@H](NC(=O)[C@H](Cc1ccc(O)cc1)NC(=O)[C@H](CC(N)=O)NC(=O)[C@H](CC(=O)O)NC(=O)[C@@H](NC(=O)[C@H](Cc1ccccc1)NC(=O)[C@@H](NC(=O)[C@H](C)NC(=O)[C@H](CC(=O)O)NC(=O)[C@H](CO)NC(=O)[C@@H](N)Cc1cnc[nH]1)C(C)C)[C@@H](C)O)[C@@H](C)O)C(C)C)C(=O)N[C@@H](CC(C)C)C(=O)N[C@@H](CC(N)=O)C(=O)O` [Aviptadil], the TEAD-luciferase reporter activity is, setting by setting: (compound concentration: 2 uM) inactive: 0.308; (compound concentration: 10 uM) inactive: -0.502.
In the case of `CCCCC/C=C/C/C=C/C/C=C/CCCCC(=O)O`, the TEAD-luciferase reporter activity reads like this: (compound concentration: 200 nM) inactive: 0.627; (compound concentration: 2 uM) inactive: 0.741; (compound concentration: 10 uM) inactive: -1.01.
Take `COc1ccc(-c2nnc(C)nc2-c2ccc(OC)cc2)cc1` [anitrazafen]: the TEAD-luciferase reporter activity is inactive: -0.243 (compound concentration: 200 nM), inactive: -1.64 (compound concentration: 2 uM) and inactive: -0.387 (compound concentration: 10 uM).
With `CS(=O)(=O)Oc1ccc(OCCc2ccc(CC(SCCc3ccc(O)cc3)C(=O)O)cc2)cc1` (centres undefined), the TEAD-luciferase reporter activity runs as follows: (compound concentration: 200 nM) inactive: 3.99; (compound concentration: 2 uM) inactive: -0.584; (compound concentration: 10 uM) inactive: 0.198.
For `CN[C@@H](C)C(=O)N[C@H](C(=O)N1CCC[C@H]1c1nc(C(=O)c2ccc(F)cc2)cs1)C1CCCCC1`, in that order: inactive: 0.762, inactive: 0.689 and inactive: 3.45.
On to `FC(F)OC(Cl)C(F)(F)F` (centres undefined) [isoflurane], for which the TEAD-luciferase reporter activity by setting is: (compound concentration: 200 nM) inactive: -1.39; (compound concentration: 2 uM) inactive: -0.697; (compound concentration: 10 uM) inactive: -0.61.
For the compound `C=C[C@H]1CNCC[C@H]1CCC(=O)c1ccnc2ccc(OC)cc12`, the TEAD-luciferase reporter activity by setting is: (compound concentration: 200 nM) inactive: -0.774; (compound concentration: 2 uM) inactive: 0.245; (compound concentration: 10 uM) inactive: 0.725.
As to `CC1=CC(=O)c2ccccc2C1=O`, the TEAD-luciferase reporter activity by setting is: (compound concentration: 200 nM) inactive: 0.126; (compound concentration: 10 uM) inactive: 0.455.
As to `CC1=CC(=O)c2ccccc2C1=O` [Menadione], the TEAD-luciferase reporter activity (compound concentration: 2 uM) was inactive: -2.43.
Take `CCCCOc1nc(N)c2[nH]c(=O)n(CCCN(CCCN3CCOCC3)Cc3cccc(CC(=O)OC)c3)c2n1`: the TEAD-luciferase reporter activity (compound concentration: 200 nM) was inactive: -0.22, the TEAD-luciferase reporter activity (compound concentration: 2 uM) was inactive: -0.816 and the TEAD-luciferase reporter activity (compound concentration: 10 uM) is inactive: 1.41.
For `Cc1oc(-c2cccs2)nc1CCOc1ccc(CC(C)(Oc2ccccc2)C(=O)O)cc1` (centres undefined), the TEAD-luciferase reporter activity reads like this: (compound concentration: 200 nM) inactive: -0.605; (compound concentration: 2 uM) inactive: -0.244; (compound concentration: 10 uM) inactive: -0.0292.
